Data: the supplement of paper PMC3334620
Whole data set: some 33,000 sequences, median “E-score (-0.5 to 0.5)” near -8e-05, cut for the highest 2% near 0.23. Some of the results follow.

Target: T1, Nrg2 (UniProt P38082)
T1 sequence: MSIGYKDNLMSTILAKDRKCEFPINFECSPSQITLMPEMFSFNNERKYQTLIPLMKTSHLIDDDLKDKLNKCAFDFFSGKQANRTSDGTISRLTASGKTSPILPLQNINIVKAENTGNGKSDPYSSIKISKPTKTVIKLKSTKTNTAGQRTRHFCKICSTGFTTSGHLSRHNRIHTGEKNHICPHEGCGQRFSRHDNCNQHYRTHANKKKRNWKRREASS
Assay: PBM E-score (8-mer binding enrichment) (E-score (-0.5 to 0.5)); higher = stronger / more preferred TF binding
Settings: protein concentration: 100 nM; construct: GST-full length
How it was run: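 Universal all-10-mer Agilent arrays, double-stranded by primer extension on fresh or once-stripped slides, were probed with about 100-200 nM GST-tagged yeast transcription factors made by PURExpress. Fluorescent anti-GST detected bound protein, and masliner normalised the scans. E-scores from the Universal PBM Analysis Suite were given to each ungapped eight-base word pooled with its reverse complement.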

| Sequence | PBM E-score |
| --- | --- |
| AGTTTGCC | 0.123 |
| AAAATTGA | -0.0279 |
| TGGTCTAA | -0.106 |
| CTACTGTA | 0.0573 |
| CCCTACCA | 0.173 |
| CGCCGGTC | -0.175 |
| CCGAGCCC | -0.117 |
| ATAGTTAA | 0.00917 |
| GTTGAGCA | 0.0601 |
| GAAAGGAC | 0.129 |
| GACAGCTC | -0.0829 |
| GATTGTGA | 0.0114 |
| TACTCTCA | 0.0049 |
| CGAAGCGC | -0.0339 |
| CCGCTTCC | -0.0735 |
| ATTTACCA | 0.0628 |
| ACAGTTGC | -0.00081 |
| CCACTTAA | 0.0242 |
| AGGTGCTC | -0.215 |
| CATCTACG | 0.0805 |
| AAGAGATC | -0.0271 |
| AAACTCGC | -0.0429 |
| AGCCCCAC | 0.0204 |
| ACAGTGGC | 0.0151 |
| CGTTCAAG | 0.0193 |

| Sequence | PBM E-score |
| --- | --- |
| GGGCTGGA | -0.1 |
| GCAGAGGA | 0.0368 |
| AACACAGT | 0.11 |
| TCCCATAA | -0.0342 |
| TACCTCGA | -0.00145 |
| CAGTAACG | -0.0425 |
| GAGAGTAC | -0.0468 |
| GATACCGA | -0.236 |
| GGATACCA | 0.0713 |
| AAGGTCGT | -0.0153 |
| AGGGAGTC | -0.286 |
| AAAGCCTC | -0.232 |
| ATAAATCA | 0.0708 |
| AGTGGAGC | -0.1 |
| AGGTGGCA | 0.0163 |
| CGGAGCTA | -0.17 |
| TATGCCAA | 0.101 |
| CCGGTGAA | -0.128 |
| AACTTGAC | 0.0147 |
| CTACGGAA | -0.0963 |
| GCGCCGAC | -0.199 |
| CCCTGCAC | 0.14 |
| GCATTAGA | -0.034 |
| AGATGAAG | -0.184 |
| GGCAACCA | -0.0916 |

| Sequence | PBM E-score |
| --- | --- |
| GCCTGTTA | -0.062 |
| ACTCATGG | -0.0143 |
| ATTTCTTC | 0.0428 |
| AGGGGCTG | 0.163 |
| CCATTGCA | -0.155 |
| ACCGACCG | -0.00577 |
| AGTTCTAC | -0.205 |
| CAATTGAC | 0.00134 |
| CTCGAACA | 0.0716 |
| ACTTACTG | -0.064 |
| CCGTAGCC | -0.218 |
| CCACCGCC | -0.109 |
| GAGACTCA | -0.122 |
| ATTTGGCA | 0.0425 |
| CTGCTTAA | -0.102 |
| CTGCCCAG | -0.262 |
| CCAGTTAG | -0.0609 |
| ACAACGTG | -0.0873 |
| CTGAAGTA | -0.0535 |
| CAGCTAAG | -0.094 |
| GGCTAGAC | -0.27 |
| CGGCAACG | -0.0325 |
| CTATCCTA | -0.0404 |
| CGGTAATC | -0.152 |
| AGCATCCA | 0.1 |

Reformatted: results already given.
Sequence	PBM E-score
CCATTGCA	-0.155
ACTTACTG	-0.064
CTATCCTA	-0.0404
CGGTAATC	-0.152

Quoted at random: 6 entries already listed

| Sequence | PBM E-score |
| --- | --- |
| GCGCCGAC | -0.199 |
| AGGGGCTG | 0.163 |
| CATCTACG | 0.0805 |
| AGGGAGTC | -0.286 |
| CTGAAGTA | -0.0535 |
| AGGTGCTC | -0.215 |

Going on with the list:

| Sequence | PBM E-score |
| --- | --- |
| GCAAATCC | 0.0135 |
| CTCCACAC | -0.0605 |
| ATGGTTAG | 0.111 |
| AACCGGAG | 0.00407 |
| GGGGAGCA | -0.291 |
| CTGCAAAG | -0.0255 |
| GCCGCCAC | -0.231 |
| CTACGTAA | -0.167 |
| ATGCCTGC | -0.0561 |
| CATACAGA | 0.0699 |
| ATGGAGGC | -0.224 |
| AAGTTCGA | 0.17 |
| CCTGATCC | 0.0888 |
| CGAGCTTA | -0.0737 |
| GCCGTCAA | -0.128 |
| AAGCTTGT | 0.0784 |
| GTTTGGCA | -0.0345 |
| CTTCTGCC | -0.0882 |
| AAGGTTTG | 0.0916 |
| AGCGACAA | 0.148 |
| CTGGAGCA | 0.0581 |
| GACGGCTC | -0.165 |
| CCTATCTC | 0.134 |
| TATGGCAA | 0.0645 |
| AAATACCC | 0.175 |

| Sequence | PBM E-score |
| --- | --- |
| GCAAAGCA | -0.139 |
| GCTCGGCC | -0.156 |
| AATCGGGA | 0.0375 |
| ACAGTACT | -0.127 |
| CTCCCGTC | 0.0244 |
| AGGGCTCA | 0.00575 |
| CTATCGAC | -0.166 |
| GCCGAAAA | 0.239 |
| CTGTACGC | -0.11 |
| CTAGTGCA | 0.108 |
| AGTCAACT | -0.198 |
| CAATCGGC | -0.00335 |
| ACAAATTC | 0.134 |
| CCTGACAG | 0.159 |
| GCCGCACC | 0.108 |
| TGTGCCAA | 0.135 |
| GCCAAACA | 0.0821 |
| CAGTATTC | -0.00222 |
| CCAAGCTC | 0.195 |
| CACAATAA | -0.0701 |
| AAGGCTGT | -0.167 |
| AGGGCCTC | -0.0367 |
| CGCGGTAA | 0.0932 |
| GACCCTAC | 0.184 |
| GGTCGAAA | 0.00719 |

| Sequence | PBM E-score |
| --- | --- |
| ATAGCGAT | -0.0278 |
| GGTACTCA | 0.0143 |
| TATCACAA | 0.0943 |
| CTTTTGTC | 0.117 |
| CTGCCGTA | -0.174 |
| GCACCATA | -0.061 |
| GGTTCGTA | 0.03 |
| CCCTTCAC | -0.0285 |
| ACAGCCTC | -0.213 |
| CATTTTAG | 0.175 |
| CGCTCCAC | -0.159 |
| TCTTTACA | 0.165 |
| ATGGCATG | 0.15 |
| AGCTAAAA | 0.0331 |
| ATTCGAAG | 0.114 |
| TAGAGCAA | -0.00591 |
| GTCGGCGA | -0.0926 |
| TGATCGAA | -0.0377 |
| CAGCTCAG | 0.0343 |
| CCTGTCCC | -0.0853 |
| ATATTTCC | 0.206 |
| AATGGTGT | -0.0177 |
| TATGCCGA | 0.0452 |
| GATTAAAC | -0.0289 |
| ATGTCGTA | 0.0108 |

| Sequence | PBM E-score |
| --- | --- |
| AGAACCTG | 0.0774 |
| CGTGTCCA | -0.147 |
| TAACGATA | 0.117 |
| AGGGACTC | -0.0325 |
| AGGGCGGA | -0.0311 |
| ACCAAGTG | -0.0903 |
| GTGTTTTA | 0.0827 |
| CCTCCGGA | -0.175 |
| AACGAGGT | 0.00605 |
| ATTAACCA | -0.0464 |
| AACACCAG | -0.124 |
| CCGAGCAG | -0.0988 |
| TTTCAAAA | 0.0859 |
| AACTGGTA | 0.0325 |
| TAGGGGGA | -0.296 |
| GTTCCGAA | 0.175 |
| AGTACACT | -0.0585 |
| TCAGCAGA | -0.116 |
| CTATATTC | 0.0669 |
| ACGAGGCT | 0.0831 |
| CTAATGGA | 0.0461 |
| CCCCGATC | -0.216 |
